In PMC6941992, “Polar recruitment of RLD by LAZY1-like protein during gravity signaling in root branch angle control” (Nature Communications, 2020):
Results are given in words; binding and its absence hold for the method and conditions named. Some results given as binding are weak or reduced against the parent protein; the word gives no strength. For some assays here: Where a sequence is shown, tags or fusion partners need not be part of it.

The chains behind the UniProt entries cited, without tags or fusion partners. Where a name states a change or a piece, a line headed by the entry shows the natural chain unless it says otherwise.
UniProt Q5XVG3: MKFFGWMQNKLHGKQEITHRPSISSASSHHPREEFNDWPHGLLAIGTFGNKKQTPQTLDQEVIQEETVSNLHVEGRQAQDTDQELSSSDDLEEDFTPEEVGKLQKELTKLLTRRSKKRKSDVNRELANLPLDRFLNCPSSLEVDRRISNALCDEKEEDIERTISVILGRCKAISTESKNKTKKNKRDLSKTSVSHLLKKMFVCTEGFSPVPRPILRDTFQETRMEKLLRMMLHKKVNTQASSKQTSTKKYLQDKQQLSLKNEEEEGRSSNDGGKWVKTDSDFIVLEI

Legend:
[1] = target: T1, GST-LZY3 CCL (Arabidopsis thaliana) (UniProt Q5XVG3); assay: pull-down; purified protein and GST-fusion protein mixed with glutathione sepharose 4B, 4 °C; eluates on SDS-PAGE; both purified
T1 sequence: KWVKTDSDFIVLEI

[2] = target: RLD1 BRX domain, purified (Arabidopsis thaliana) (UniProt Q947D2); assay: SEC; gel filtration analysis of isolated BRX domains and of their complexes with LZY CCLs; both purified

B1: RLD1 BRX domain, purified (domain or fragment, UniProt Q947D2 1023-1078)
chain: AEWIEQYEPGVYITLVALHDGTRDLRRVRFSRRRFGEHQAETWWSENREKVYEKYN
- binding [1]: binds
- binding [2]: no binding
